From patent US12459898B2, “Polycationic amphiphiles as antimicrobial agents and methods using same” (Temple University-Of The Commonwealth System of Higher …, priority 2016, dated 2025) come the findings set out here.

Type in all cases: cell-based
In series [1] the test system is methicillin-susceptible Staphylococcus aureus MSSA (SH1000). In words: Minimum inhibitory concentration (MIC), S. aureus. The settings on record: 72 h, read-out: MIC, S. aureus. The protocol: (§1) As used herein, the term “minimum inhibitory concentration (MIC)” refers to the lowest concentration of an antimicrobial agent that will inhibit the visible growth of a microorganism after overnight incubation. MIC values against bacteria, for example, the Gram-positive Staphylococcus aureus and Enterococcus faecalis and the Gram-negative Escherichia coli and Pseudomonas aeruginosa were determined by standard methods. See also P. A. Wayne, Methods for Dilution Antimicrobial Tests for Bacteria that Grow Aerobically; Approved Standard, Ninth Edition, 2012, CLSI Document M07-A9, Vol. 32 No. 2, which is incorporated by reference herein in its entirety. […]
(§2) Compounds were serially diluted two-fold from stock solutions to yield twelve test concentrations. […] Plates were incubated statically at 37° C. for 72 hours upon which time wells were evaluated visually for bacterial growth. The MIC was determined as the lowest concentration of compound resulting in no bacterial growth visible to the naked eye, based on the majority of three independent experiments. […]

Series [2] has as its system Enterococcus faecalis (OG1RF). Nature of the series: Minimum inhibitory concentration (MIC), E. faecalis. The settings on record: 72 h, read-out: MIC, E. faecalis. The protocol:
as §1, §2

The test system of series [3] is Escherichia coli (MC4100). Nature of the series: Minimum inhibitory concentration (MIC), E. coli. The settings on record: 72 h, read-out: MIC, E. coli. Here is the method: as §1, §2
Series [4] relates to Pseudomonas aeruginosa (PAO1). Nature of the series: Minimum inhibitory concentration (MIC), P. aeruginosa. The settings on record: PAO1, 72 h, read-out: MIC, P. aeruginosa. The protocol: as §1, §2
Series [5] relates to community-acquired methicillin-resistant Staphylococcus aureus CA-MRSA (USA300-0114). In words: Minimum inhibitory concentration (MIC), CA-MRSA. Here is the method:
as §1, §2

Series [6] has as its system hospital-acquired methicillin-resistant Staphylococcus aureus HA-MRSA (ATCC 33591). In words: microbe, parasite or virus in culture. The settings on record: 72 h, read-out: MIC, HA-MRSA. Here is the method:
as §1, §2

For series [7], the system named is red blood cells (mechanically defibrinated sheep blood). Nature of the series: Red blood cell (RBC) lysis assay (Lysis20). The protocol:
For the tris-pyridine system, it was initially attempted to alkylate the commercially available O3Pyr, which led to no reaction under a number of SN2-type reaction conditions, presumably due to steric hindrance next to the nucleophilic pyridine nitrogen. The preparation of the “para” isomer via a precedented reductive amination shown in FIG. 4 (52%) was then carried out (Oh et al., 2007, Korean Chem. Soc, 28: 2193-2194, Abdel-Magid et al., 1996, J. Org. Chem, 61: 3849-3862). […] Attempts to prepare homologs led to variable yields and unacceptable purity. While not wishing to be bound by any particular theory it was hypothesized that this could have resulted from a fragmentation event driven by the central nitrogen, which might be circumvented by a change in the electronic distribution of the QAC. […] These amphiphiles were prepared in 71-97% yields, again after recrystallization or trituration. With 18 novel multi-pyridinium compounds in hand, varying in both alkyl chain length and number of pyridinium residues, both antimicrobial activity and toxicity of the compounds were examined, using red blood cell lysis as a model; CPC served as a comparison. […]
RBC lysis assays were performed on mechanically defibrinated sheep blood (Hemostat Labs: DSB030). […] The absorbance of the supernatant was measured with a UV spectrometer at a 540 nm wavelength.

With `CCCCCCCCCCCCCCCC[n+]1ccccc1` [CPC, cetylpyridinium chloride, reference compound], the MIC in series [1] came out at 0.5 µM; in series [2], 1 µM; in series [3], 8 µM; in series [4] it was 63 µM; in series [5] (Staphylococcus aureus, 72 h, read-out: MIC, CA-MRSA), 16 µM; in series [6] it was 1 µM. Besides, the “increase in MIC, CA-MRSA as compared to a non-resistant SA strain” value in series [5] (hallmark of bacterial resistance) is recorded as 32 fold. The “Lysis20 (highest concentration at which <20% of RBCs are lysed)” value in series [7] (sheep RBCs in PBS, 37° C., 1 hour, absorbance 540 nm, Table 1) is listed as 8 μm. Besides, the “lysis20 (hemolysis activity)” value in series [7] (sheep RBCs, values restated in text) is 8 µM.
